These are yes or no findings as the source states them, for the method shown. Some results given as binding are weak or reduced against the parent protein; the word gives no strength. Tags and fused reporters may be left off the sequences shown.

Chains of the proteins cited; added tags and fusions are not shown. Residues count along the entry.
UniProt Q99KV1, residues 23-358: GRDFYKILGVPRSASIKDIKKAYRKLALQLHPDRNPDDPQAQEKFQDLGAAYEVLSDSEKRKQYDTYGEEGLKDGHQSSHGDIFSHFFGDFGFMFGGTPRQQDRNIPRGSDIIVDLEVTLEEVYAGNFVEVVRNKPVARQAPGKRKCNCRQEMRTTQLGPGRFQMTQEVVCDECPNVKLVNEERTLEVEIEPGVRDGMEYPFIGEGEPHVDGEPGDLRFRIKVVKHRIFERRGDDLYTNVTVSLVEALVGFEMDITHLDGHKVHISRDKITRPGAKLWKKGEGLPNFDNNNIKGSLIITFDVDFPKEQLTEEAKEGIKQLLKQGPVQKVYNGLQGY

In the experiment the target is C-terminal His-myc-tagged HEDJ/ERdj3 protein secreted from pHEDJ-transfected HEK293T cells (mouse) (UniProt Q99KV1). In words: stated with the R1 colony competition assay.

B1: Fc-tagged SD extracellular domain (SDe-Fc) (Fc fusion, not shown: a dimerising Fc or GST)
chain: QDATVTRKDPVFLDCQAHGEGPIKVTWLKNGAKLSENKRIQVLSNGSLYISEAEGRRGEQSDEGFYQCLAVNKYGAILSQKAHLTLSTISAFEVHPVSTEVPEGGVARFSCKISSTPPAVITWEFNRTALPMTMDSRVTALPSGVLQIYDAGPEDAGKYRCVAATHAHKRKSMEASLTIVPANETRSFYMPTIIASPQNVTASLHQTVVLECMATGYPKPIISWSRLDHKSIDVFNTRVLGNGNLIISDVKLQHAGVYVCRATTPGTRNFTVAMATLTVLAPPSFVEWPESLTRPRAGTARFVCQAEGIPSPKMSWLKNGRRIHSNGRIKMYNSKLVINQIIPEDDAIYQCMAENSQGSVLSRARLTVVMSEDRPSAPYNVHAETMSSSAILLAWERPLYNSDKVIAYSVHYMKAEGLNNEEYQVVLGNDTTHYIIDDLEPDSNYTFYIVAYMPMGASQMSDHVTQNTLEDVPLRPPEISLTSRSPTDILISWLPIPAKYRRGQVVLYRLSFRLSTENSIQVVELPGTVHEYLLEGLEPDSVYLVRITAATRVGLGESSVWTSHRTPKATSVKAPKSPELHLEPLNCTTISVRWLQDTEDPAAIRGYKLFYKEEGQQEHGPIFLDTGDLLYTLSGLDPRRKYHVRLLAYNNLEDGYQADQTVSTPGCVSVRDRMVPPPPPPHHLYAKANTSSSIFLHWRRPAFTTAQVINYTIRCNPVGLQNASLVLYLQTSETHMLVQGLEPNTKYEFAVRLHVDQLSSPWSPVVYHTTLPEAPTGPPVGVKVTLIEDDTALVSWKPPDGPETVVTRYTILYASRKAWIAGEWQVLHREGAITMALLENLVAGNVYIVKISASNEVGEGPFPNSVELAVLPKDASESNQRPKRLDSSDAKVYSG
For the molecule B1, the binding result is given as “binds”.

Values taken from patent US20050287664A1 (published 2005).
